Results from publication PMC8913942.
These are yes or no findings as the source states them, for the method shown. In cells and extracts the contact can be indirect. Some entries that bind do so weakly or less than the wild type.

Protein sequences, listed by entry. Tags and fused reporters are not part of them. Residues count along the entry.
UniProt Q01705, residues 19-2531: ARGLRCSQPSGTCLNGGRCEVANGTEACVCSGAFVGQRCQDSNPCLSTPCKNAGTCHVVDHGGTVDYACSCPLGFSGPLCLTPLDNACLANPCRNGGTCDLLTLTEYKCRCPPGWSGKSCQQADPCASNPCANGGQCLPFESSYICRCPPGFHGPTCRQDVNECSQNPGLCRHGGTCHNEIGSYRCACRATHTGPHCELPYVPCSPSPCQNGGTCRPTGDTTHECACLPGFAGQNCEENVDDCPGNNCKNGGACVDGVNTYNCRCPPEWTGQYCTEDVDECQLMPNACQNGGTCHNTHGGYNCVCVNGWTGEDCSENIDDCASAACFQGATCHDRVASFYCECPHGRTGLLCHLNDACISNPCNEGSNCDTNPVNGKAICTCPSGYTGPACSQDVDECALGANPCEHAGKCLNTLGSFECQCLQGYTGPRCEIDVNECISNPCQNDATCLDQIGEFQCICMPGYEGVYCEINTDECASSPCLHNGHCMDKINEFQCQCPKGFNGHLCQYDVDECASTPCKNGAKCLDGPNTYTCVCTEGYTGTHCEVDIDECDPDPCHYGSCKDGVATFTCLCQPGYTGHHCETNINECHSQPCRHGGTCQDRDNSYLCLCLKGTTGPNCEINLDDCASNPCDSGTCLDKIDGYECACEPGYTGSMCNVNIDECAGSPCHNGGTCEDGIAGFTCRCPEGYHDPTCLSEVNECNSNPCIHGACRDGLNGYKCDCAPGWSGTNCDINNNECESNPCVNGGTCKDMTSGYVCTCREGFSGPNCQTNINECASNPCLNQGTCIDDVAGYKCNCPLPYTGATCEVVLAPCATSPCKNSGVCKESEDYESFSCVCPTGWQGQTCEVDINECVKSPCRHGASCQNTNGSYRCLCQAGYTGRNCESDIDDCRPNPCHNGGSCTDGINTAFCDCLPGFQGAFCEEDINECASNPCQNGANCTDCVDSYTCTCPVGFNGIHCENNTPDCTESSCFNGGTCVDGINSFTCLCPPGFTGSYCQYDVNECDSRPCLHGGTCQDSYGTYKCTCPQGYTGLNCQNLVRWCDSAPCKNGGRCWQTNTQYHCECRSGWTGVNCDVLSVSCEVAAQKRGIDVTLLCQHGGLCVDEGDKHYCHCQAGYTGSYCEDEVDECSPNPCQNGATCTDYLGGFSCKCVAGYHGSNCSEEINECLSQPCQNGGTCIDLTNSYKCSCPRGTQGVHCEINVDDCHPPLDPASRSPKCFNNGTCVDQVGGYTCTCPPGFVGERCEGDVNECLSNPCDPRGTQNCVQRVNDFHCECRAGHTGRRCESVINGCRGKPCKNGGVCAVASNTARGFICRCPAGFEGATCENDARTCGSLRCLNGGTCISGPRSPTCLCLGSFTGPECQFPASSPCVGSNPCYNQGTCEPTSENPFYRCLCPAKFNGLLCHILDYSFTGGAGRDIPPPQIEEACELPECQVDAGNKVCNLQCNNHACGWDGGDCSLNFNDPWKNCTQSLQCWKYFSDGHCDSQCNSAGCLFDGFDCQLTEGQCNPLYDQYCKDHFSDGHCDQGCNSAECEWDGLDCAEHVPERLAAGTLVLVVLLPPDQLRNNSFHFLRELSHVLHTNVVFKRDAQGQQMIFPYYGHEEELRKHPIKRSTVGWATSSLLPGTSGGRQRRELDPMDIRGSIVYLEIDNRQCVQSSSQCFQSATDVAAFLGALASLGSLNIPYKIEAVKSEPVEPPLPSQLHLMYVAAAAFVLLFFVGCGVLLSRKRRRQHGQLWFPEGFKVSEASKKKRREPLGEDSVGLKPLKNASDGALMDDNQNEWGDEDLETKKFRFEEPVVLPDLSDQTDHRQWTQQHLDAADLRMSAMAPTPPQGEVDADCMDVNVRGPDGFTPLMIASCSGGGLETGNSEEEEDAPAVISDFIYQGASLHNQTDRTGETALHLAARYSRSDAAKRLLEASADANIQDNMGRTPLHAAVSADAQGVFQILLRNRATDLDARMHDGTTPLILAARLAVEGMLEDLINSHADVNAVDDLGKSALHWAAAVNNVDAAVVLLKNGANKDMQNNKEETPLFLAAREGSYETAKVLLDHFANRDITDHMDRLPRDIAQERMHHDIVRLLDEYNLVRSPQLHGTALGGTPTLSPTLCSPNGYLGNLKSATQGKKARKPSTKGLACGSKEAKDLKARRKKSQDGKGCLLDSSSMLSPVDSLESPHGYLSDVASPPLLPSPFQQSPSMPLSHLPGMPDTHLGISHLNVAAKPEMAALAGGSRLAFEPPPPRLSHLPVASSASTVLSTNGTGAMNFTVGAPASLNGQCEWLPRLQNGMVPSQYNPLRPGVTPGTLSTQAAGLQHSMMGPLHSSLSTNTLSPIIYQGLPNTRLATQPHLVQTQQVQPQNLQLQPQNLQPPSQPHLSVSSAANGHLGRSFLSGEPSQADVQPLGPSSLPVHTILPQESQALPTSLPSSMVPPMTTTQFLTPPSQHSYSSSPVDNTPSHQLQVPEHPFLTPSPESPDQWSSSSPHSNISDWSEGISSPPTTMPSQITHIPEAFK
UniProt Q04207: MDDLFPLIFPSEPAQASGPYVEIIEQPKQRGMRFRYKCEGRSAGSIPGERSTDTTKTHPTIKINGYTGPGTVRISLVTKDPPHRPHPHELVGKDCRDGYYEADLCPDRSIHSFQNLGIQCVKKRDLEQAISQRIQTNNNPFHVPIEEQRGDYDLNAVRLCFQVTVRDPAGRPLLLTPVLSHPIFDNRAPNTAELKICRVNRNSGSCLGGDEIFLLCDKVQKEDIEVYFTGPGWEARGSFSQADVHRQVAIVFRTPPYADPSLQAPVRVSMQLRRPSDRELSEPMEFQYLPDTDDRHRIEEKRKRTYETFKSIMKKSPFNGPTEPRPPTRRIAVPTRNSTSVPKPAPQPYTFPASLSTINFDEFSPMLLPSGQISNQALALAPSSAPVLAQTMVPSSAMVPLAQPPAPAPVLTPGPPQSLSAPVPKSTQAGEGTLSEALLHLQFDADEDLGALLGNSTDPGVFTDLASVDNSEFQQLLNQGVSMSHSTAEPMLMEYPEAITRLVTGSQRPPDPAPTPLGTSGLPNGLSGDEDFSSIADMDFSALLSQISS

Tests used:
[1] = target: Notch1 (mouse (endogenous in RAW264.7)) (UniProt Q01705); assay: co-IP; reciprocal co-IP from RIPA lysate (200 μg total protein) with 1 μg specific antibody overnight at 4°C, protein A+G agarose beads 3 hours at 4°C, five washes with lysis buffer, immunoblot; cells also with Notch1 knockdown or NICD overexpression
[2] = target: NF-κB p65 (mouse (endogenous in RAW264.7)) (UniProt Q04207); assay: as above

| binding [1] | binding [2] | Substance |
| --- | --- | --- |
| binds |  | NF-κB p65 (from UniProt Q04207 1-549) |
|  | binds | Notch1 (from UniProt Q01705 19-2531) (receptor) |
